Experimental findings from patent US20170189504A1, “NOVEL PEPTIDES AND COMBINATION OF PEPTIDES FOR USE IN IMMUNOTHERAPY AGAINST VARIOUS CANCERS” (immatics biotechnologies GmbH, priority 2015, published 2017) are described below.

For some assays here: Expression grades refer to the transcript from which the peptide derives; gene names, where given, were looked up from the sequence.

In series [1] the test system is source genes (mRNA). As to the kind of experiment: Expression profiling of source genes by in-house RNASeq of tumor and normal tissues (Table 18, FIG. 2). More on the design: species or system human; key: very highly over-expressed in tumors compared to a panel of normal tissues (+++); highly over-expressed in tumors compared to a panel of normal tissues (++); over-expressed in tumors compared to a panel of normal tissues (+). Conditions: source gene of peptide.

In series [2] the test system is source genes (mRNA). The series is described as follows: Gene and exon expression of source genes, TCGA tumor samples compared with normal tissue samples (Lonsdale, 2013) (Table 17). More on the design: species or system human. The following applies: for Over-expression category of source gene (target coverage), DLBC: DLBC = Lymphoid neoplasm diffuse large B-cell lymphoma (N = 48); for Over-expression category of source gene (target coverage), LAML: LAML = Acute Myeloid Leukemia (N = 173).

The test system of a further series is HLA-A*24. As to the kind of experiment: Identification and relative LC-MS quantitation of HLA-A*24-presented tumor-associated peptides on tissue samples (presentation profiles, Tables 14A, 14B, 16, FIG. 1). More on the design: species or system human; key to Presentation score GC / Presentation score NSCLC / Presentation score PCA / Presentation score GB / Presentation score HCC / Presentation score RCC: specifically presented on tumors (++++); very highly over-presented on tumors compared to a panel of normal tissues (+++); highly over-presented on tumors compared to a panel of normal tissues (++); over-presented on tumors compared to a panel of normal tissues (+). Conditions: for Presentation score NSCLC: non-small cell lung cancer (N = 91) vs panel of normal tissues (N = 70); for Peptide Presentation on cancer entities: Table 14A, HLA-A*24-binding tumor-associated peptides, cancer entities on which the peptide was found presented.

For the substance “180: peptide found in UGGT1 (gene looked up) (IYDDSFIRPVTF; listed as Homo sapiens) [compound 180]”, the “Expression score CRC” value in the series on source genes (mRNA) [1] (colorectal cancer (N = 20) vs panel of normal tissues) is reported as “+”. Also, the “Expression score GBC_CCC” value in the series on source genes (mRNA) [1] (gallbladder adenocarcinoma and cholangiocarcinoma (N = 3) vs panel of normal tissues) is on record as “+”. The “Expression score GC” value in the series on source genes (mRNA) [1] (gastric cancer (N = 11) vs panel of normal tissues) is “+”. Besides, the “Expression score GB” value in the series on source genes (mRNA) [1] (glioblastoma (N = 24) vs panel of normal tissues) is on record as “+”. Also, the “Expression score HCC” value with source genes (mRNA) [1] (hepatocellular carcinoma (N = 15) vs panel of normal tissues) is reported as “+”. Also, the “Expression score NSCLC” value in the series with source genes (mRNA) [1] (non-small cell lung cancer (N = 11) vs panel of normal tissues) is on record as “+”. For the same substance, the “Expression score PC” value in the series on source genes (mRNA) [1] (pancreatic cancer (N = 26) vs panel of normal tissues) was “+”. Moreover, the “Expression score SCLC” value in the series on source genes (mRNA) [1] (small cell lung cancer (N = 10) vs panel of normal tissues) is “+”. Moreover, in the series with source genes (mRNA) [1] (uterine cancer (N = 10) vs panel of normal tissues), the “Expression score UEC” value is listed as “+”. Besides, the “Over-expression category of source gene (target coverage), BLCA” value in the series on source genes (mRNA) [2] (BLCA = Bladder urothelial carcinoma (N = 408), same cutoff) was “B (>= 20% of tumors above the cutoff, but <50%)”. Besides, in the series with source genes (mRNA) [2] (BRCA = Breast cancer (N = 1104), tumors more than 2-fold above highest 75% percentile of normal tissues), the “Over-expression category of source gene (target coverage), BRCA” value is reported as “A (>=50% of tumors above the cutoff)”. Moreover, the “Over-expression category of source gene (target coverage), CHOL” value in the series with source genes (mRNA) [2] (CHOL = Cholangiocarcinoma (N = 36), same cutoff) is recorded as “B (>= 20% of tumors above the cutoff, but <50%)”. Moreover, in the series on source genes (mRNA) [2] (COAD = Colon and rectal adenocarcinoma (N = 462), same cutoff), the “Over-expression category of source gene (target coverage), COAD” value is on record as “A (>=50% of tumors above the cutoff)”. Further, in the series with source genes (mRNA) [2] (same cutoff), the “Over-expression category of source gene (target coverage), DLBC” value was “C (>=5% of tumors above the cutoff, but <20%)” and the “Over-expression category of source gene (target coverage), LAML” value is given as “A (>=50% of tumors above the cutoff)”. Besides, the “Over-expression category of source gene (target coverage), ESCA” value with source genes (mRNA) [2] (ESCA = Esophageal cancer (N = 185), same cutoff) is given as “A (>=50% of tumors above the cutoff)”. In addition, the “Over-expression category of source gene (target coverage), GBM” value in the series on source genes (mRNA) [2] (GBM = Glioblastoma multiforme (N = 169), same cutoff) is “A (>=50% of tumors above the cutoff)”. Also, the “Over-expression category of source gene (target coverage), KICH” value in the series on source genes (mRNA) [2] (KICH = Kidney chromophobe (N = 66), same cutoff) is listed as “C (>=5% of tumors above the cutoff, but <20%)”. For the same substance, the “Over-expression category of source gene (target coverage), KIRC” value in the series on source genes (mRNA) [2] (KIRC = Clear cell kidney carcinoma (N = 534), same cutoff) is listed as “B (>= 20% of tumors above the cutoff, but <50%)”. Also, the “Over-expression category of source gene (target coverage), KIRP” value in the series with source genes (mRNA) [2] (KIRP = Papillary kidney carcinoma (N = 291), same cutoff) is listed as “B (>= 20% of tumors above the cutoff, but <50%)”. Further, the “Over-expression category of source gene (target coverage), LGG” value in the series on source genes (mRNA) [2] (LGG = Lower grade glioma (N = 534), same cutoff) was “B (>= 20% of tumors above the cutoff, but <50%)”. Also, in the series on source genes (mRNA) [2] (LIHC = Liver hepatocellular carcinoma (N = 374), same cutoff), the “Over-expression category of source gene (target coverage), LIHC” value is reported as “B (>= 20% of tumors above the cutoff, but <50%)”. In addition, in the series with source genes (mRNA) [2] (LUAD = Lung adenocarcinoma (N = 517), same cutoff), the “Over-expression category of source gene (target coverage), LUAD” value is given as “A (>=50% of tumors above the cutoff)”. Also, the “Over-expression category of source gene (target coverage), LUSC” value in the series on source genes (mRNA) [2] (LUSC = Lung squamous cell carcinoma (N = 503), same cutoff) is on record as “A (>=50% of tumors above the cutoff)”. In addition, the “Over-expression category of source gene (target coverage), OV” value in the series on source genes (mRNA) [2] (OV = Ovarian serous cystadenocarcinoma (N = 309), same cutoff) was “A (>=50% of tumors above the cutoff)”. The “Over-expression category of source gene (target coverage), PAAD” value in the series with source genes (mRNA) [2] (PAAD = Pancreatic ductal adenocarcinoma (N = 179), same cutoff) was “B (>= 20% of tumors above the cutoff, but <50%)”. Further, the “Over-expression category of source gene (target coverage), PRAD” value in the series on source genes (mRNA) [2] (PRAD = Prostate adenocarcinoma (N = 498), same cutoff) is “B (>= 20% of tumors above the cutoff, but <50%)”. For the same substance, the “Over-expression category of source gene (target coverage), READ” value with source genes (mRNA) [2] (READ = Colon and rectal adenocarcinoma (N = 167), same cutoff) is on record as “A (>=50% of tumors above the cutoff)”. The “Over-expression category of source gene (target coverage), SKCM” value with source genes (mRNA) [2] (SKCM = Skin cutaneous melanoma (N = 473), same cutoff) was “A (>=50% of tumors above the cutoff)”. Moreover, the “Over-expression category of source gene (target coverage), STAD” value in the series with source genes (mRNA) [2] (STAD = Stomach adenocarcinoma (N = 415), same cutoff) is recorded as “A (>=50% of tumors above the cutoff)”. Also, in the series on source genes (mRNA) [2] (UCEC = Uterine corpus endometrial carcinoma (N = 546), same cutoff), the “Over-expression category of source gene (target coverage), UCEC” value is “B (>= 20% of tumors above the cutoff, but <50%)”. Moreover, in the series on HLA-A*24 (HLA-A*24 peptides, hepatocellular carcinoma (N = 15) vs panel of normal tissues (N = 70)), the “Presentation score HCC” value is “++++”. The “Presentation score NSCLC” value in the series with HLA-A*24 (HLA-A*24 peptides) is “++++”. In the series on HLA-A*24, the “Peptide Presentation on cancer entities” value is reported as “NSCLC, HCC”.
On to “183: peptide found in CD96 (gene looked up) (VFTSTARAF; listed as Homo sapiens) [compound 183]”, for which the “Expression score AML” value with source genes (mRNA) [1] (acute myeloid leukemia (N = 11) vs panel of normal tissues) is reported as “++”. Also, the “Expression score NHL” value in the series with source genes (mRNA) [1] (non-Hodgkin lymphoma (N = 10) vs panel of normal tissues) is listed as “+”. Further, in the series on source genes (mRNA) [2] (same cutoff), the “Over-expression category of source gene (target coverage), DLBC” value is listed as “C (>=5% of tumors above the cutoff, but <20%)” and the “Over-expression category of source gene (target coverage), LAML” value was “A (>=50% of tumors above the cutoff)”. In addition, the “Presentation score NSCLC” value in the series with HLA-A*24 (HLA-A*24 peptides) is “++++”. In addition, the “Presentation score PCA” value in the series on HLA-A*24 (HLA-A*24 peptides, prostate cancer (N = 40) vs panel of normal tissues (N = 70)) is “++++”. In addition, the “Peptide Presentation on cancer entities” value in the series with HLA-A*24 was “NSCLC, PCA”.
